The other results are listed elsewhere or left out. The calls rarely recur for the same compound in another form.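 Kinases, fused to nanoluciferase, were expressed in K562 cells; luminescence was measured every 4 h from 2 to 18 h as percent of control (DMSO = 100%, positive control = 0%). A time point is decreased if signal falls significantly (2 sigma). Hits were called by the authors by a rule that is not shown; the count of time points alone does not decide it.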
Experiments:
Experiment in all cases: kinase-Nluc reporter destabilization hit call (1 = scored as downregulated) (binary); higher = compound decreases kinase abundance
Details in all cases: K562; 2-18 h
BRAF_V600E = tested on: BRAF_V600E
BTK = BTK (UniProt Q06187)
CAMK2A = CAMK2A (UniProt Q9UQM7)
CAMK2G = CAMK2G (UniProt Q13555)
CDK10 = CDK10 (UniProt Q15131)
CDK2 = CDK2 (UniProt P24941)
CDK3 = CDK3 (UniProt Q00526)
CDK4 = CDK4 (UniProt P11802)
CDK5 = CDK5 (UniProt Q00535)
CDK6 = CDK6 (UniProt Q00534)
CDK7 = CDK7 (UniProt P50613)
CDK9 = CDK9 (UniProt P50750)
CHEK2 = CHEK2 (UniProt O96017)
CSF1R = CSF1R (UniProt P07333)
CSK = CSK (UniProt P41240)
CSNK1A1 = CSNK1A1 (UniProt P48729)
CSNK1D = CSNK1D (UniProt P48730)
DDR1 = DDR1 (UniProt Q08345)
DYRK1B = DYRK1B (UniProt Q9Y463)
DYRK2 = DYRK2 (UniProt Q92630)

Sequences of proteins named here, by UniProt entry; tags and fusion partners are left off. A change or cut given only in a name is not applied to a line headed by its entry.
UniProt Q9UQM7, whole entry: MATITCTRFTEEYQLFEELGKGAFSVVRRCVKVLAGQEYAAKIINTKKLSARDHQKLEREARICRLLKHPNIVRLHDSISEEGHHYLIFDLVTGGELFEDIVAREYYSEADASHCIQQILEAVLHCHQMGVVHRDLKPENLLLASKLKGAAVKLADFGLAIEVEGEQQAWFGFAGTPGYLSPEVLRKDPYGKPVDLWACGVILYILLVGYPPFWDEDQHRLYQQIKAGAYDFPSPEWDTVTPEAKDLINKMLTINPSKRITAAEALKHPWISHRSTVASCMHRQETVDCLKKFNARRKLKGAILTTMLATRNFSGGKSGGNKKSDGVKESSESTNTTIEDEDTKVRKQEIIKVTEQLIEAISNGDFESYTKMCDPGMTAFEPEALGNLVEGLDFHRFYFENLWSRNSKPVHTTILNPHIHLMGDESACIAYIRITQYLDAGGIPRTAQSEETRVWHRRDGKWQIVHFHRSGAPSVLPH
UniProt Q15131: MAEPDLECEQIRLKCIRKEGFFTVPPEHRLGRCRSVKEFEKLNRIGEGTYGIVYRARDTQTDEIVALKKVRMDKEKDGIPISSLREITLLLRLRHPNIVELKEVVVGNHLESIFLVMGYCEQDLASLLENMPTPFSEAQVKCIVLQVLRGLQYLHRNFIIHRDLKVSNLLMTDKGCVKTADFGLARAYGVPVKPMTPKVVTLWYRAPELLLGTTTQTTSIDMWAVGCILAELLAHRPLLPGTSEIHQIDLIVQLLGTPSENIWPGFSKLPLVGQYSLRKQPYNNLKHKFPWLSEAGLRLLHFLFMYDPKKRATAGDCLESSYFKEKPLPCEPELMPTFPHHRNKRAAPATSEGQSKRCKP
UniProt Q00526: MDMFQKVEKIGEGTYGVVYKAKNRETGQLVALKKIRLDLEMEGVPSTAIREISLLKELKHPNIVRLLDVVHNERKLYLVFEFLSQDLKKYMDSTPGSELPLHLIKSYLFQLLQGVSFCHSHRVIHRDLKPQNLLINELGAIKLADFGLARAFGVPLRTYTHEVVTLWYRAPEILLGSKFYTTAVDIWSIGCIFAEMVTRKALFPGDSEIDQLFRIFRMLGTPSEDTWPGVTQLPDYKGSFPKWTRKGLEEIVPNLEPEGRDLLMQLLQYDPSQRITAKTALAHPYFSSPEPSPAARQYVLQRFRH
UniProt P11802: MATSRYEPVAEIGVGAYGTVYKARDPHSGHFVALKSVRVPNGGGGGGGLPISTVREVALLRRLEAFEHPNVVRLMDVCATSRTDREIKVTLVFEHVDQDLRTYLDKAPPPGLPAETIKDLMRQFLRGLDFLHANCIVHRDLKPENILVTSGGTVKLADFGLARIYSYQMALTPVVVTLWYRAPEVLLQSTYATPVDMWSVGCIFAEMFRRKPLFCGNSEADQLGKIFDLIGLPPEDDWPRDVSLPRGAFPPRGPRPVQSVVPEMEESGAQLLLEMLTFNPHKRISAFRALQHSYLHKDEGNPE
UniProt Q00535, whole entry, looked up: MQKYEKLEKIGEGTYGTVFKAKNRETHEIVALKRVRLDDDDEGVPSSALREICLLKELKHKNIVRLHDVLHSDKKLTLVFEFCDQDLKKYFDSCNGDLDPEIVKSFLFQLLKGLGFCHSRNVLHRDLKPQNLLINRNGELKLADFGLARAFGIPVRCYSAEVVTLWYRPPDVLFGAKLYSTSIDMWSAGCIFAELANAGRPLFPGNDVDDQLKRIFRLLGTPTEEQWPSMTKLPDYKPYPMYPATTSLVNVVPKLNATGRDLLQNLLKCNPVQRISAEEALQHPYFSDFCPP
UniProt Q00534, whole entry: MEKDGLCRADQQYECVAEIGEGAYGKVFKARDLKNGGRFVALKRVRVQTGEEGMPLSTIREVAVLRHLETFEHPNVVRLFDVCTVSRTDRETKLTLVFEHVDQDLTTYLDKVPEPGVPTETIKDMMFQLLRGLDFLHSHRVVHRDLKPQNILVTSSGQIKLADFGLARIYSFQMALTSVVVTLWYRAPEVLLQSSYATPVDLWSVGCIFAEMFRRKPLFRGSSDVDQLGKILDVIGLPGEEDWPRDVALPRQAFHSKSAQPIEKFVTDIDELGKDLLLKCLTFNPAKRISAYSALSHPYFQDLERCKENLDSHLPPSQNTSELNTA
UniProt P50750, whole entry: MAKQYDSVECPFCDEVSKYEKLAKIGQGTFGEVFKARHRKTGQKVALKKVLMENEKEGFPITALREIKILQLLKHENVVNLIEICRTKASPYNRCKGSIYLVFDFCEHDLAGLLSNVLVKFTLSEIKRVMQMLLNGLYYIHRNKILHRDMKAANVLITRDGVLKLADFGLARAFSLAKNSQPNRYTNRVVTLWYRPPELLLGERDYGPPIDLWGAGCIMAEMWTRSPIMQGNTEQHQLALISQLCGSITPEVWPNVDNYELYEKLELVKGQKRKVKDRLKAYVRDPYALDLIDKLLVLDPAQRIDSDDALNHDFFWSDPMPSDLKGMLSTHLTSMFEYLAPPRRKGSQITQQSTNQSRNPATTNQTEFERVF
UniProt P07333, whole entry: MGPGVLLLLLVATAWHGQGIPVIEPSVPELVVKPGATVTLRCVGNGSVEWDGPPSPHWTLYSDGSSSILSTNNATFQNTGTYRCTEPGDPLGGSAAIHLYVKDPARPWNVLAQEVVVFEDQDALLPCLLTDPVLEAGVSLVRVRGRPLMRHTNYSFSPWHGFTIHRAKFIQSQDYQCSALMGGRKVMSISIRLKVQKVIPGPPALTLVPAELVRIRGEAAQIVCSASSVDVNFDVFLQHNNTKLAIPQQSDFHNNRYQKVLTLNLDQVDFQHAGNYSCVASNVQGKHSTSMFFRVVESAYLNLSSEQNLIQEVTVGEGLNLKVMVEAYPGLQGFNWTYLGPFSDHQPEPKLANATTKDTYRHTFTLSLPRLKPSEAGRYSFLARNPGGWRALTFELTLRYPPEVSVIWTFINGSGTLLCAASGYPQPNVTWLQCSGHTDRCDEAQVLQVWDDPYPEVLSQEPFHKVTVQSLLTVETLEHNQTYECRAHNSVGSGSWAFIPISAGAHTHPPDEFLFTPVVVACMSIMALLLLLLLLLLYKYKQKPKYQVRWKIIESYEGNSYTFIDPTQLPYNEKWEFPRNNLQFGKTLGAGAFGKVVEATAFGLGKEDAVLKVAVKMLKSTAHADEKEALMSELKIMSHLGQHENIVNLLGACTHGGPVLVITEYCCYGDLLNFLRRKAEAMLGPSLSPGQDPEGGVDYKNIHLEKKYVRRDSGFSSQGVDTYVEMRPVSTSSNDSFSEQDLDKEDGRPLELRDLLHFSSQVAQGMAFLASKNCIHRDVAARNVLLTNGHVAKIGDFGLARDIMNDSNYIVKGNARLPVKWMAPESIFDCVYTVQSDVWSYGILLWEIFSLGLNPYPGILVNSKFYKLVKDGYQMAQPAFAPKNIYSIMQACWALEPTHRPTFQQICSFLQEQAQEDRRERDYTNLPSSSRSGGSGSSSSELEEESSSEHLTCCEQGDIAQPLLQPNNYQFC
UniProt P48729: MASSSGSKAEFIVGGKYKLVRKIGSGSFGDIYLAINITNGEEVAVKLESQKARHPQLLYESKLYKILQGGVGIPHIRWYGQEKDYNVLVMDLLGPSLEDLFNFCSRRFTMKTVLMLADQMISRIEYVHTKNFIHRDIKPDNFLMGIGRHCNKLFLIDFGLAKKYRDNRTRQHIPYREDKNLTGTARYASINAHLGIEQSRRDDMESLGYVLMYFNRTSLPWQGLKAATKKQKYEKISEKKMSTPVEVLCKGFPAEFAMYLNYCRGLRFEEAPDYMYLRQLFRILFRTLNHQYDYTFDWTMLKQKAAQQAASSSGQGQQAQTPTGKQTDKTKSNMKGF
UniProt P48730: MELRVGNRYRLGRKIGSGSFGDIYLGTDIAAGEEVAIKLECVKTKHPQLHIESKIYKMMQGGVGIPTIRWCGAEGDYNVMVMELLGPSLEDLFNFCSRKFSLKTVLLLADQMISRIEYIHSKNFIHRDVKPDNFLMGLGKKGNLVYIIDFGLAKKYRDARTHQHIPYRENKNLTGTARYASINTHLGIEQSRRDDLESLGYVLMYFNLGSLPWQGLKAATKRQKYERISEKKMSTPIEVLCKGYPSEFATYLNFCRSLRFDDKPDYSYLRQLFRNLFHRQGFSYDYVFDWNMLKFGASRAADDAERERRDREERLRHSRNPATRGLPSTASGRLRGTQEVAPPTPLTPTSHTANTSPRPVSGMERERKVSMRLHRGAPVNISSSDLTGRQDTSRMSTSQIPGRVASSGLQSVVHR
UniProt Q08345: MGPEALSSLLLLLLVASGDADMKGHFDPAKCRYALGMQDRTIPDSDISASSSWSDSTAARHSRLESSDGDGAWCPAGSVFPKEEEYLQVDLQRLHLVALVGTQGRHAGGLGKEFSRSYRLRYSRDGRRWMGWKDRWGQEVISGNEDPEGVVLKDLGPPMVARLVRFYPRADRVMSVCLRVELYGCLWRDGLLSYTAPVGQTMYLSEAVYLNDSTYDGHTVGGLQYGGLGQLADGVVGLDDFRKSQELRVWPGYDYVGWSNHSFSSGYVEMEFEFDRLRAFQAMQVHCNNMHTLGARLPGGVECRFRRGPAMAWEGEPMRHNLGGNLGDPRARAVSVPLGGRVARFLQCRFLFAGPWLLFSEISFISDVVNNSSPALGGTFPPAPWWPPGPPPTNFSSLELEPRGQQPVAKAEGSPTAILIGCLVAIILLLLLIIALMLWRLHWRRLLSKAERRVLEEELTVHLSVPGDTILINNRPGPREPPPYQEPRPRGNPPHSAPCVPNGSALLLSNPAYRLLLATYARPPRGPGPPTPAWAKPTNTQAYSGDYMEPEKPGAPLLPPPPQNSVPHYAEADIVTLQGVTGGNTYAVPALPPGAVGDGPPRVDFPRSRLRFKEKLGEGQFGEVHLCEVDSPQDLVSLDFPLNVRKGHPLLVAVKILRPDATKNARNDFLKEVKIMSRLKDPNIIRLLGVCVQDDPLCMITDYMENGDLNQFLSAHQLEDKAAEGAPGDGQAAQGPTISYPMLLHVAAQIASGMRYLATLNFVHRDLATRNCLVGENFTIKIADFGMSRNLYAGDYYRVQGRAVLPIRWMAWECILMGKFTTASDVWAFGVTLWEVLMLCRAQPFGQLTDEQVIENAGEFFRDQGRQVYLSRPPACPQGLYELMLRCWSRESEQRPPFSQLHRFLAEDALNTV
UniProt Q9Y463, whole entry, looked up: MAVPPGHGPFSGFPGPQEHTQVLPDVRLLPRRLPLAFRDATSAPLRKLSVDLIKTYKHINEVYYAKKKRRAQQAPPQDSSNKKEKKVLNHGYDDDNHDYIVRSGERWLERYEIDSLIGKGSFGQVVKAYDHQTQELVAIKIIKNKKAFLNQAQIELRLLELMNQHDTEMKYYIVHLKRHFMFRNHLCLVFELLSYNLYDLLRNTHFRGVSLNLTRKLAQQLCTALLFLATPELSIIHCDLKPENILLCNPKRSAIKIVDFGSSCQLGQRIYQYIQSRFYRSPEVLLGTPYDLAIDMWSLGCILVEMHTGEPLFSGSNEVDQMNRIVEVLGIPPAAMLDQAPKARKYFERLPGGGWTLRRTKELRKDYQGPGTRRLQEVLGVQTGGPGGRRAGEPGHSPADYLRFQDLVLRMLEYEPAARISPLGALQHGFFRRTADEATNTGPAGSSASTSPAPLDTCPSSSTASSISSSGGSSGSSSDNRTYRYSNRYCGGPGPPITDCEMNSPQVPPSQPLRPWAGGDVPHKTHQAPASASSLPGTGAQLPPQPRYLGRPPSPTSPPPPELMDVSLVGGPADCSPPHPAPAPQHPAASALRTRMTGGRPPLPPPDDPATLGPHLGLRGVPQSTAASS
UniProt Q92630: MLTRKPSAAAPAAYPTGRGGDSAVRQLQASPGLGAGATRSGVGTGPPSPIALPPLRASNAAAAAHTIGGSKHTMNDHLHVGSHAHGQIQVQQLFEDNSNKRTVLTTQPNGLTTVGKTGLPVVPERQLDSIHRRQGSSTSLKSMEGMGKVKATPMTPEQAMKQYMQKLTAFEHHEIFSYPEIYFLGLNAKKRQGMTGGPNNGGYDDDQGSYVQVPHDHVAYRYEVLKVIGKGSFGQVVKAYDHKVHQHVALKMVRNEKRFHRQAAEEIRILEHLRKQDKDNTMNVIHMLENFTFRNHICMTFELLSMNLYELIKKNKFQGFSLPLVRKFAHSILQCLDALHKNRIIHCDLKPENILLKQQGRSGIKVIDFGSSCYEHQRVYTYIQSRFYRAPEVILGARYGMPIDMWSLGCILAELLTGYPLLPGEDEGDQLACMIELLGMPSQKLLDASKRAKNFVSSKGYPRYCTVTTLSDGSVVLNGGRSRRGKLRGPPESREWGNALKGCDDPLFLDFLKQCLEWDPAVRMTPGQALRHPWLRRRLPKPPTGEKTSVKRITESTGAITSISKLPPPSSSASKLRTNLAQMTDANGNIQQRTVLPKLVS

SMILES	kinase-Nluc reporter destabilization hit call (BRAF_V600E)	kinase-Nluc reporter destabilization hit call (BTK)	kinase-Nluc reporter destabilization hit call (CAMK2A)	kinase-Nluc reporter destabilization hit call (CAMK2G)	kinase-Nluc reporter destabilization hit call (CDK10)	kinase-Nluc reporter destabilization hit call (CDK2)	kinase-Nluc reporter destabilization hit call (CDK3)	kinase-Nluc reporter destabilization hit call (CDK4)	kinase-Nluc reporter destabilization hit call (CDK5)	kinase-Nluc reporter destabilization hit call (CDK6)	kinase-Nluc reporter destabilization hit call (CDK7)	kinase-Nluc reporter destabilization hit call (CDK9)	kinase-Nluc reporter destabilization hit call (CHEK2)	kinase-Nluc reporter destabilization hit call (CSF1R)	kinase-Nluc reporter destabilization hit call (CSK)	kinase-Nluc reporter destabilization hit call (CSNK1A1)	kinase-Nluc reporter destabilization hit call (CSNK1D)	kinase-Nluc reporter destabilization hit call (DDR1)	kinase-Nluc reporter destabilization hit call (DYRK1B)	kinase-Nluc reporter destabilization hit call (DYRK2)
COc1cc2cc(Oc3ccc4ccc(=O)oc4c3)c(=O)oc2cc1O [Daphnoretin] (10 µM)	inactive: 0	inactive: 0	inactive: 0	inactive: 0	inactive: 0	inactive: 0	inactive: 0	inactive: 0	inactive: 0	inactive: 0	inactive: 0	inactive: 0	inactive: 0	inactive: 0	inactive: 0	inactive: 0	inactive: 0	inactive: 0	inactive: 0	inactive: 0
CNC(=O)c1ccc2c(C(=Nc3cccc(CN(C)C)c3)c3ccccc3)c(O)[nH]c2c1 [MEK inhibitor] (10 µM)	inactive: 0	inactive: 0	inactive: 0	inactive: 0	inactive: 0	inactive: 0	inactive: 0	inactive: 0	inactive: 0	inactive: 0	inactive: 0	inactive: 0	inactive: 0	inactive: 0	inactive: 0	inactive: 0	inactive: 0	inactive: 0	inactive: 0	inactive: 0
COCCOc1ccc2c(c1)ncn2-c1ccc2cccc(N3CCC(N)CC3)c2n1 (10 µM)	active: 1	inactive: 0	inactive: 0	inactive: 0	inactive: 0	inactive: 0	inactive: 0	inactive: 0	inactive: 0	inactive: 0	inactive: 0	inactive: 0	inactive: 0	inactive: 0	inactive: 0	inactive: 0	inactive: 0	inactive: 0	inactive: 0	inactive: 0
O=C(NCCN1CCOCC1)Nc1nc2ccc(Sc3nnc4ccc(-c5ccc(F)cc5)nn34)cc2s1 (10 µM)	inactive: 0	inactive: 0	inactive: 0	inactive: 0	inactive: 0	inactive: 0	inactive: 0	inactive: 0	inactive: 0	inactive: 0	inactive: 0	inactive: 0	inactive: 0	inactive: 0	inactive: 0	inactive: 0	inactive: 0	inactive: 0	inactive: 0	inactive: 0
COc1cc(N2CCC(N3CCN(C)CC3)CC2)ccc1Nc1ncc(Cl)c(-c2c[nH]c3ccccc23)n1 (2.5 µM)	inactive: 0	inactive: 0	inactive: 0	inactive: 0	inactive: 0	inactive: 0	inactive: 0	inactive: 0	inactive: 0	inactive: 0	inactive: 0	inactive: 0	inactive: 0	inactive: 0	inactive: 0	inactive: 0	inactive: 0	inactive: 0	inactive: 0	inactive: 0
CN1CCC(CNc2ccc3ncc(-c4cccc(OC(F)(F)F)c4)n3n2)CC1 (2.5 µM)	inactive: 0	inactive: 0	inactive: 0	inactive: 0	inactive: 0	inactive: 0	inactive: 0	inactive: 0	inactive: 0	inactive: 0	inactive: 0	inactive: 0	inactive: 0	inactive: 0	inactive: 0	inactive: 0	inactive: 0	inactive: 0	inactive: 0	inactive: 0
Nc1ncc(C(=O)NC2CN(C(=O)C3CC3)C2)c2ccc(-c3cccc(F)c3)nc12 (2 µM)	inactive: 0	inactive: 0	inactive: 0	inactive: 0	inactive: 0	inactive: 0	inactive: 0	inactive: 0	inactive: 0	inactive: 0	inactive: 0	inactive: 0	inactive: 0	inactive: 0	inactive: 0	inactive: 0	inactive: 0	inactive: 0	inactive: 0	inactive: 0
O=Nc1c(-c2c(O)[nH]c3cc(Br)ccc23)[nH]c2ccccc12 [GSK 3 Inhibitor IX] (2.5 µM)	inactive: 0	inactive: 0	inactive: 0	inactive: 0	inactive: 0	inactive: 0	inactive: 0	inactive: 0	inactive: 0	inactive: 0	inactive: 0	inactive: 0	inactive: 0	inactive: 0	inactive: 0	inactive: 0	inactive: 0	inactive: 0	inactive: 0	inactive: 0
COc1c(O)cc2oc(-c3ccc(O)cc3)cc(=O)c2c1O [Hispidulin] (10 µM)	inactive: 0	inactive: 0	inactive: 0	inactive: 0	inactive: 0	inactive: 0	inactive: 0	inactive: 0	inactive: 0	inactive: 0	inactive: 0	inactive: 0	inactive: 0	inactive: 0	inactive: 0	inactive: 0	inactive: 0	inactive: 0	inactive: 0	inactive: 0
CNC(=O)CNc1cnc2ccc(-c3ccc(OC)c(OC)c3)cc2n1 (10 µM)	inactive: 0	inactive: 0	inactive: 0	inactive: 0	inactive: 0	inactive: 0	inactive: 0	inactive: 0	inactive: 0	inactive: 0	inactive: 0	inactive: 0	inactive: 0	inactive: 0	inactive: 0	inactive: 0	inactive: 0	inactive: 0	inactive: 0	inactive: 0
CNC(=O)c1cc2c(Oc3ccc(NC(=O)C4(C(=O)Nc5ccc(F)cc5)CC4)cc3)ccnc2cc1OC (2.5 µM)	inactive: 0	inactive: 0	inactive: 0	inactive: 0	inactive: 0	inactive: 0	inactive: 0	inactive: 0	inactive: 0	inactive: 0	inactive: 0	inactive: 0	inactive: 0	inactive: 0	inactive: 0	inactive: 0	inactive: 0	inactive: 0	inactive: 0	inactive: 0
N#Cc1ccc(-c2cnc3[nH]cc(NC(=O)c4cccnc4)c3c2)cc1 (10 µM)	inactive: 0	inactive: 0	inactive: 0	inactive: 0	inactive: 0	inactive: 0	inactive: 0	inactive: 0	inactive: 0	inactive: 0	inactive: 0	inactive: 0	inactive: 0	inactive: 0	inactive: 0	inactive: 0	inactive: 0	inactive: 0	inactive: 0	inactive: 0
Cn1cc(-c2cc(Oc3cc(F)c(NC(=O)C4(C(=O)Nc5ccccc5)CC4)cc3F)ccn2)cn1 (2.5 µM)	inactive: 0	inactive: 0	inactive: 0	inactive: 0	inactive: 0	inactive: 0	inactive: 0	inactive: 0	inactive: 0	inactive: 0	inactive: 0	inactive: 0	inactive: 0	inactive: 0	inactive: 0	inactive: 0	inactive: 0	inactive: 0	inactive: 0	inactive: 0
Cn1c(CNc2cccc(C(=O)NCc3ccccc3C(F)(F)F)c2)nnc1-c1ccncc1 (10 µM)	inactive: 0	inactive: 0	inactive: 0	inactive: 0	inactive: 0	inactive: 0	inactive: 0	inactive: 0	inactive: 0	inactive: 0	inactive: 0	inactive: 0	inactive: 0	inactive: 0	inactive: 0	inactive: 0	inactive: 0	inactive: 0	inactive: 0	inactive: 0
Cc1cnc(NC(=O)c2cc(Oc3cnc(C(=O)N(C)C)nc3)c3cc(C)oc3c2)cn1 (10 µM)	inactive: 0	inactive: 0	inactive: 0	inactive: 0	inactive: 0	inactive: 0	inactive: 0	inactive: 0	inactive: 0	inactive: 0	inactive: 0	inactive: 0	inactive: 0	inactive: 0	inactive: 0	inactive: 0	inactive: 0	inactive: 0	inactive: 0	inactive: 0
COc1cc(-c2cc(-c3ccc(N4CCNCC4)cc3)cnc2C)cc(OC)c1OC (10 µM)	inactive: 0	inactive: 0	inactive: 0	inactive: 0	inactive: 0	inactive: 0	inactive: 0	inactive: 0	inactive: 0	inactive: 0	inactive: 0	inactive: 0	inactive: 0	inactive: 0	inactive: 0	inactive: 0	inactive: 0	inactive: 0	inactive: 0	inactive: 0
Nc1ncc(-c2ccnc(Nc3ccncc3)n2)c(CC2CC2)n1 (10 µM)	inactive: 0	inactive: 0	inactive: 0	inactive: 0	inactive: 0	inactive: 0	inactive: 0	inactive: 0	inactive: 0	inactive: 0	inactive: 0	inactive: 0	inactive: 0	inactive: 0	inactive: 0	inactive: 0	inactive: 0	inactive: 0	inactive: 0	inactive: 0

An excerpt of these results, in markdown.

| SMILES | kinase-Nluc reporter destabilization hit call (BRAF_V600E) | kinase-Nluc reporter destabilization hit call (BTK) | kinase-Nluc reporter destabilization hit call (CAMK2A) | kinase-Nluc reporter destabilization hit call (CAMK2G) | kinase-Nluc reporter destabilization hit call (CDK10) | kinase-Nluc reporter destabilization hit call (CDK2) | kinase-Nluc reporter destabilization hit call (CDK3) | kinase-Nluc reporter destabilization hit call (CDK4) | kinase-Nluc reporter destabilization hit call (CDK5) | kinase-Nluc reporter destabilization hit call (CDK6) | kinase-Nluc reporter destabilization hit call (CDK7) | kinase-Nluc reporter destabilization hit call (CDK9) | kinase-Nluc reporter destabilization hit call (CHEK2) | kinase-Nluc reporter destabilization hit call (CSF1R) | kinase-Nluc reporter destabilization hit call (CSK) | kinase-Nluc reporter destabilization hit call (CSNK1A1) | kinase-Nluc reporter destabilization hit call (CSNK1D) | kinase-Nluc reporter destabilization hit call (DDR1) | kinase-Nluc reporter destabilization hit call (DYRK1B) | kinase-Nluc reporter destabilization hit call (DYRK2) |
| --- | --- | --- | --- | --- | --- | --- | --- | --- | --- | --- | --- | --- | --- | --- | --- | --- | --- | --- | --- | --- |
| CNC(=O)c1ccc2c(C(=Nc3cccc(CN(C)C)c3)c3ccccc3)c(O)[nH]c2c1 [MEK inhibitor] (10 µM) | inactive: 0 | inactive: 0 | inactive: 0 | inactive: 0 | inactive: 0 | inactive: 0 | inactive: 0 | inactive: 0 | inactive: 0 | inactive: 0 | inactive: 0 | inactive: 0 | inactive: 0 | inactive: 0 | inactive: 0 | inactive: 0 | inactive: 0 | inactive: 0 | inactive: 0 | inactive: 0 |
| CNC(=O)CNc1cnc2ccc(-c3ccc(OC)c(OC)c3)cc2n1 (10 µM) | inactive: 0 | inactive: 0 | inactive: 0 | inactive: 0 | inactive: 0 | inactive: 0 | inactive: 0 | inactive: 0 | inactive: 0 | inactive: 0 | inactive: 0 | inactive: 0 | inactive: 0 | inactive: 0 | inactive: 0 | inactive: 0 | inactive: 0 | inactive: 0 | inactive: 0 | inactive: 0 |

Reference: the supplement of paper PMC12823440, “Inhibitors supercharge kinase turnover through native proteolytic circuits” (Nature, 2025)
